In the supplement of paper PMC10849652:
Some of the results follow.

Sequences of proteins named here, by UniProt entry; tags and fusion partners are left off. A change or cut given only in a name is not applied to a line headed by its entry.
UniProt P63167, whole entry, looked up: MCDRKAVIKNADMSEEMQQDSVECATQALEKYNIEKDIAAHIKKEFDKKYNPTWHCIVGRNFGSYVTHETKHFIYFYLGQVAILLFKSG
UniProt Q96EV8: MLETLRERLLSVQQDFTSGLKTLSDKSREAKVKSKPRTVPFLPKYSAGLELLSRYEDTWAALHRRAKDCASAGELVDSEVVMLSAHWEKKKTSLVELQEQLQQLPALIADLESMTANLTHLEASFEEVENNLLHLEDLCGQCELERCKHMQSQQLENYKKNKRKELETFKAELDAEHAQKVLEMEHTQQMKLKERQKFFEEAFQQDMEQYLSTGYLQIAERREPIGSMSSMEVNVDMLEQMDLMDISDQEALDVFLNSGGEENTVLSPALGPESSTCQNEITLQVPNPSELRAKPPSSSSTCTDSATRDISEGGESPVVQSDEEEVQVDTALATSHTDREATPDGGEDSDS
UniProt Q96FJ2, whole entry, looked up: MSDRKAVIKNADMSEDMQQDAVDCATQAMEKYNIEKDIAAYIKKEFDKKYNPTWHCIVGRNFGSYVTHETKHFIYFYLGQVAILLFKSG
UniProt Q96C19: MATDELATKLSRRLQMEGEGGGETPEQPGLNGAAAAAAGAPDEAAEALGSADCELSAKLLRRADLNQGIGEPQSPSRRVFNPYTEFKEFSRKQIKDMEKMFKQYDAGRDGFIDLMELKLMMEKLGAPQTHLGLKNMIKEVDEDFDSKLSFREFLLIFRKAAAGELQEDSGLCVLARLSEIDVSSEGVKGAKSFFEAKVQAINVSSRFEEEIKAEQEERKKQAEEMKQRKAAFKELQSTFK
UniProt Q15125: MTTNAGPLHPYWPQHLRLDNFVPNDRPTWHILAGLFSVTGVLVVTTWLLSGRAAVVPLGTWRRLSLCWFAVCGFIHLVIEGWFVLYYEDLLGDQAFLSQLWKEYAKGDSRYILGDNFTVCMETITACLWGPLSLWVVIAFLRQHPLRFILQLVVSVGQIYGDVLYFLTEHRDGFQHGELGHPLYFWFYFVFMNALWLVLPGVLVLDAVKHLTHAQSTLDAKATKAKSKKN
UniProt Q6V1X1: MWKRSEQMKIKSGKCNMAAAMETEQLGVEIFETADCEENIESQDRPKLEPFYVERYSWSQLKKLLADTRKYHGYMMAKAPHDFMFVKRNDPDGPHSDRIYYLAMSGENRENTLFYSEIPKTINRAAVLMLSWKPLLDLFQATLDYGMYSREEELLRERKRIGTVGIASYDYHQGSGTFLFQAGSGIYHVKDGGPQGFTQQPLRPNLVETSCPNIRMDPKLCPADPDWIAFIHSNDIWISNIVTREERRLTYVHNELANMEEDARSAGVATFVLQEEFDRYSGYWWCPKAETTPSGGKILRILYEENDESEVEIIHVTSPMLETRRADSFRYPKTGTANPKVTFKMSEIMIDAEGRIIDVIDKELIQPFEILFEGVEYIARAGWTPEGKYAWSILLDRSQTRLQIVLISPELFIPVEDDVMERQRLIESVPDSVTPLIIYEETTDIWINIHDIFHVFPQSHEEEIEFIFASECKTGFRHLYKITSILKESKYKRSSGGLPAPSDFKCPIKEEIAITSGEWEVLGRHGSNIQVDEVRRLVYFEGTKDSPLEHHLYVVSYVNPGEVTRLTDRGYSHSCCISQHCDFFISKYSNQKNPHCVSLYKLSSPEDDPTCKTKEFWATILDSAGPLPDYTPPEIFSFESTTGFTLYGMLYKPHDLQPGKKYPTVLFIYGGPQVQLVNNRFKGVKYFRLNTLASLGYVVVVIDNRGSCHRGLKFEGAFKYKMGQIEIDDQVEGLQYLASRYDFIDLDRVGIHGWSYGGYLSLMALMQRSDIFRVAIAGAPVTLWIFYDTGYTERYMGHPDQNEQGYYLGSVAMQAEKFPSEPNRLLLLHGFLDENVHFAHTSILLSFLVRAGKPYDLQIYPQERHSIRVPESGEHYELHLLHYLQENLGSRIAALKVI
UniProt P60981: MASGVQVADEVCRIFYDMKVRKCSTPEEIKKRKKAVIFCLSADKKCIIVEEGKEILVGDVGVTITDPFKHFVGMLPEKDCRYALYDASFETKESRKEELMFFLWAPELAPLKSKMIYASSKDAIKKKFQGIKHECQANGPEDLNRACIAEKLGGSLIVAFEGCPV
UniProt O60739, whole entry, looked up: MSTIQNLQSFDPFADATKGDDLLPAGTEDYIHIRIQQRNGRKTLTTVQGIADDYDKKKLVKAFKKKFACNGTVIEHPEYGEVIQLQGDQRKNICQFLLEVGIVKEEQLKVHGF
UniProt P98172: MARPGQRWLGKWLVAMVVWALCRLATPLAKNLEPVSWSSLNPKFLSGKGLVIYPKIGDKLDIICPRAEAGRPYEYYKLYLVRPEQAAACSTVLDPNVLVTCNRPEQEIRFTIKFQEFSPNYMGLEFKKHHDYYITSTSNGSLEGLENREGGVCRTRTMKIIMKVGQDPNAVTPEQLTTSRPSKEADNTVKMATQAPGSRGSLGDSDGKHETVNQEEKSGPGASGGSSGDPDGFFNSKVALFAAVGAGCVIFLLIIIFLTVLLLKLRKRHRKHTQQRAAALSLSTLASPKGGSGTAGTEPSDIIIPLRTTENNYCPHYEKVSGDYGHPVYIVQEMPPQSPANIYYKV
UniProt Q9H9B1: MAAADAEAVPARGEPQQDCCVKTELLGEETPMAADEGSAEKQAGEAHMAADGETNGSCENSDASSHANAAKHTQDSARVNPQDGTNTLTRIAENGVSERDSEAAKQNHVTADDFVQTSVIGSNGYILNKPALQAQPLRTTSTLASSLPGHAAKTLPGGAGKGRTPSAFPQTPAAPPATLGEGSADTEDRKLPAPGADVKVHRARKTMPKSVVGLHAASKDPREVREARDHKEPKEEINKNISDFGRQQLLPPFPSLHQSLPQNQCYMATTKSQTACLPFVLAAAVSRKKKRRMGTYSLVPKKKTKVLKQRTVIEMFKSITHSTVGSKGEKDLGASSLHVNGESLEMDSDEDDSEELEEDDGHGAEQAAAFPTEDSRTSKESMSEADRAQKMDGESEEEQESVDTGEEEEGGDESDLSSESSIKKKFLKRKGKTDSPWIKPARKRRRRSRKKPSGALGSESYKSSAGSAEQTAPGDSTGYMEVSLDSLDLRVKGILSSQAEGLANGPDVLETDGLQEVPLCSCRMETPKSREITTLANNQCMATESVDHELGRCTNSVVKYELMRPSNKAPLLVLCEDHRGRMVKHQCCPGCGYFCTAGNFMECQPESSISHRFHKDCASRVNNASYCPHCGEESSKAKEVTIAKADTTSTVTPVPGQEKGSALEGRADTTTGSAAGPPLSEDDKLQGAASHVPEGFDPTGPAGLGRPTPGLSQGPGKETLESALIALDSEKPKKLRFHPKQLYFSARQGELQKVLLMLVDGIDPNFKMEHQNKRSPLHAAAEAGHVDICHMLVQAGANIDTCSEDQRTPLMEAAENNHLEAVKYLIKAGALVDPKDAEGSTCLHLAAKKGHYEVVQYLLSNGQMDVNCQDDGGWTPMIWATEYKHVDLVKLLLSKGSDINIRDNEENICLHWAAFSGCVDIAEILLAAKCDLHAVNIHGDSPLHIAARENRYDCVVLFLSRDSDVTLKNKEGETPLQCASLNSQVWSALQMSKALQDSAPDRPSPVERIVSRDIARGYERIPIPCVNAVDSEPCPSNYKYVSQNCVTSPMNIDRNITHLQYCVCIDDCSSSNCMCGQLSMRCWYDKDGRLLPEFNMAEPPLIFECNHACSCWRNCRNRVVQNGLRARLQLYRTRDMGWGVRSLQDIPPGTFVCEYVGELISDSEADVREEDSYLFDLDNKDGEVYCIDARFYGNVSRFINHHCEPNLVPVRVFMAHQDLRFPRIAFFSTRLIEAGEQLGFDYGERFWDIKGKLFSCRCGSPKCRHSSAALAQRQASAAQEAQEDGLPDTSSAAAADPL
UniProt Q9NTX5: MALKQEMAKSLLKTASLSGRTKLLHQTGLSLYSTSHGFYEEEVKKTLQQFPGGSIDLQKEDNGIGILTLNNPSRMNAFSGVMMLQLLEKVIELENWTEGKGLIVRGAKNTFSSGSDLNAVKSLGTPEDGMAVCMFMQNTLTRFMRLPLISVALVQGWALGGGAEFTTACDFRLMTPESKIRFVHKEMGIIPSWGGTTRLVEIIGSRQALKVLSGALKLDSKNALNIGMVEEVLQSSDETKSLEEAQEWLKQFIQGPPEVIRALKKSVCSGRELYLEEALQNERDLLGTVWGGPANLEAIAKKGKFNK
UniProt Q9NRR4: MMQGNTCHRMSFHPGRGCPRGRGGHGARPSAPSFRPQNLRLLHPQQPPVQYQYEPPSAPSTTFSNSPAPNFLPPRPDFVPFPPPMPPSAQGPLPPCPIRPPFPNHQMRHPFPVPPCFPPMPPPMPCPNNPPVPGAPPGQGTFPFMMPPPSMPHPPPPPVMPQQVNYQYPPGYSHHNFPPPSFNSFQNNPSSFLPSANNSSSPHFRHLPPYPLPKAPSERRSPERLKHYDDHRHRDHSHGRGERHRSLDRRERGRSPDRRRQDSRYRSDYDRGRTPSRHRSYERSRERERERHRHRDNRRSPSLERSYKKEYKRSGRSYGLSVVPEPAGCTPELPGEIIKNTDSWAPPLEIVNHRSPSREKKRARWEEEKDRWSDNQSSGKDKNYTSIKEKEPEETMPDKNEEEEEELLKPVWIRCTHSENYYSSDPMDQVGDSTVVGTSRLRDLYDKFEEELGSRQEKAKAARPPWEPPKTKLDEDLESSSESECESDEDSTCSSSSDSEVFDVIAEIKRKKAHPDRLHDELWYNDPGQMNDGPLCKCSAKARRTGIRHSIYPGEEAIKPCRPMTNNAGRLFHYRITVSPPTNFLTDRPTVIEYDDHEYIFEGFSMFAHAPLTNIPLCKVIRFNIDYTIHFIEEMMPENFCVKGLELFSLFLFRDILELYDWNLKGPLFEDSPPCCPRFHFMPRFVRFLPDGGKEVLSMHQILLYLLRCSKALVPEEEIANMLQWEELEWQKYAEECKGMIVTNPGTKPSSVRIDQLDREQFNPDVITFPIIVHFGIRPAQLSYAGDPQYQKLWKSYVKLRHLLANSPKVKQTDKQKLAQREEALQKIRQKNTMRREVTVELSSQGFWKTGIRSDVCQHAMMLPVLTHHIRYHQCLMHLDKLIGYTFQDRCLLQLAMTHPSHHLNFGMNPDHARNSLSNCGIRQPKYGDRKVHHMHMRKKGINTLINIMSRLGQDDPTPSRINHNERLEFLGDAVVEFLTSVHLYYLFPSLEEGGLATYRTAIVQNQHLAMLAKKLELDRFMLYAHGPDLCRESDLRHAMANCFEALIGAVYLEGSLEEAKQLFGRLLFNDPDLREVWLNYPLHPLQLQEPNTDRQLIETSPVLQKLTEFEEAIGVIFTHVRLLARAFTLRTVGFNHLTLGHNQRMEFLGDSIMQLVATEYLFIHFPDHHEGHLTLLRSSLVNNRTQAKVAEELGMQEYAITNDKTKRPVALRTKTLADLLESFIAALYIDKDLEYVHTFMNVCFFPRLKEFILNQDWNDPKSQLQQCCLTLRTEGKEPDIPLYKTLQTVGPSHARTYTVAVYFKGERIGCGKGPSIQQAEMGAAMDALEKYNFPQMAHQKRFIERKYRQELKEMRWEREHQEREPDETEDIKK
UniProt P42126: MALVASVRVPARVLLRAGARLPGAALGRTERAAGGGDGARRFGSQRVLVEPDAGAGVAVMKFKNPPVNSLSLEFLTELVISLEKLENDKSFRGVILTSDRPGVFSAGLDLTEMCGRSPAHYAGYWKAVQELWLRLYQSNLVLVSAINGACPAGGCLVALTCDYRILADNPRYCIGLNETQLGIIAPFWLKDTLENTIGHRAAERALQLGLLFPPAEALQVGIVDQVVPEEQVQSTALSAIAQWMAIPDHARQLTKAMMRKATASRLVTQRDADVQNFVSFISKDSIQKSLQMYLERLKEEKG

Columns and labels:
Test in all cases: log2 fold change, soluble protein after heating vs DMSO (PISA); higher = thermal stabilisation; K562 lysate, 10 uM; active = over 0.2 and 3.5 SD of the protein, either way, in both replicates (recomputed)
vemurafenib = compound: CCCS(=O)(=O)Nc1ccc(F)c(C(=O)c2c[nH]c3ncc(-c4ccc(Cl)cc4)cc23)c1F [vemurafenib]
Procedure, shortened: (§1)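 Thermal stability, expressed as log-two fold change relative to solvent controls, is given from duplicates. Crude K562 extract in PBS pH 7.4 with 1 mM MgCl2, at 1 mg/mL protein, was treated with 10 μM compound for 30 min and heated in aliquots for 3 min across 48°C-58°C. After pooling, adjustment to 0.5% NP-40 at 4°C and centrifugation at 21,000xg for 90 min, supernatant protein was measured by TMTpro 16plex LC-MS/MS with channel sums equalised.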

[1] = compound: CCCS(=O)(=O)Nc1ccc(F)c(C(=O)c2c[nH]c3ncc(Cl)cc23)c1F
Procedure, shortened: as §1

barasertib = compound: CCN(CCCOc1ccc2c(Nc3cc(CC(=O)Nc4cccc(F)c4)[nH]n3)ncnc2c1)CCOP(=O)(O)O [barasertib]
Procedure, shortened: as §1

[2] = compound: CC[C@@H]1C(=O)N(C)c2cnc(Nc3ccc(C(=O)NC4CCN(C)CC4)cc3OC)nc2N1C1CCCC1
Procedure, shortened: as §1

volasertib = compound: CC[C@@H]1C(=O)N(C)c2cnc(Nc3ccc(C(=O)N[C@H]4CC[C@H](N5CCN(CC6CC6)CC5)CC4)cc3OC)nc2N1C(C)C [volasertib]
Procedure, shortened: as §1

[3] = compound: CCn1c(C(=O)N(C2CC2)C2CC2)cc2c3c(ncn3C)c(Nc3cc(C)n(C)n3)nc21
Procedure, shortened: as §1

[4] = compound: CCn1cc(-c2ccnc3[nH]c(-c4cccc(CN(C)C)c4)cc23)c(-c2ccc(NC(=O)N(C)C)cc2)n1
Procedure, shortened: as §1

[5] = compound: CN1CCC(CNc2ccc3ncc(-c4cccc(OC(F)(F)F)c4)n3n2)CC1
Procedure, shortened: as §1

saracatinib = compound: CN1CCN(CCOc2cc(OC3CCOCC3)c3c(Nc4c(Cl)ccc5c4OCO5)ncnc3c2)CC1 [saracatinib]
Procedure, shortened: as §1

sotrastaurin = compound: CN1CCN(c2nc(C3=C(c4c[nH]c5ccccc45)C(=O)NC3=O)c3ccccc3n2)CC1 [sotrastaurin]
Procedure, shortened: as §1

alvocidib = compound: CN1CC[C@H](c2c(O)cc(O)c3c(=O)cc(-c4ccccc4Cl)oc23)[C@H](O)C1 [alvocidib]
Procedure, shortened: as §1

Tubastatin A = compound: CN1CCc2c(c3ccccc3n2Cc2ccc(C(=O)NO)cc2)C1 [Tubastatin A]
Procedure, shortened: as §1

[6] = compound: CNC(=O)C1=CC=CC=C1NC2=NC(=NC=C2Cl)NC3=C(C=C(C=C3)N4CCOCC4)OC
Procedure, shortened: as §1

defactinib = compound: CNC(=O)c1ccc(Nc2ncc(C(F)(F)F)c(NCc3nccnc3N(C)S(C)(=O)=O)n2)cc1 [defactinib]
Procedure, shortened: as §1

[7] = compound: CNc1nc(-c2ccc3c(N)n[nH]c3c2)cc(N2C[C@@H](C(=O)NC3CCCCC3)CC[C@H]2C)n1
Procedure, shortened: as §1

encorafenib = compound: COC(=O)N[C@@H](C)CNc1nccc(-c2cn(C(C)C)nc2-c2cc(Cl)cc(NS(C)(=O)=O)c2F)n1 [encorafenib]
Procedure, shortened: as §1

[8] = compound: COC(=O)[C@H](CCSC)NC(=O)C1=C(C=C(C=C1)NC[C@H](CS)N)C2=CC=CC=C2
Procedure, shortened: as §1

alisertib = compound: COc1cc(Nc2ncc3c(n2)-c2ccc(Cl)cc2C(c2c(F)cccc2OC)=NC3)ccc1C(=O)O [alisertib]
Procedure, shortened: as §1

[9] = compound: COc1cc2nc(-c3cc(F)ccc3O)nc(N[C@@H]3CNC[C@H]3C(C)(C)O)c2cc1OC
Procedure, shortened: as §1

gefitinib = compound: COc1cc2ncnc(Nc3ccc(F)c(Cl)c3)c2cc1OCCCN1CCOCC1 [gefitinib]
Procedure, shortened: as §1

Measured: log2 fold change

DYNLL1 (UniProt P63167)
inactive: vemurafenib -0.035 | [1] -0.018 | barasertib 0.011 | [2] 0.078 | volasertib 0.017 | [3] -0.024 | [4] -0.174 | [5] 0.008 | saracatinib 0.007 | sotrastaurin -0.007 | alvocidib 0 | Tubastatin A 0.048 | [6] 0.082 | defactinib 0.075 | [7] 0.011 | encorafenib -0.018 | [8] -0.026 | alisertib -0.015 | [9] -0.006 | gefitinib -0.067

DTNBP1 (UniProt Q96EV8)
inactive: vemurafenib 0.086 | [1] -0.005 | barasertib -0.028 | [2] 0.028 | volasertib 0.002 | [3] 0.019 | [4] -0.001 | [5] 0.022 | saracatinib 0.002 | sotrastaurin 0.029 | alvocidib -0.034 | Tubastatin A 0.024 | [6] -0.008 | defactinib -0.057 | [7] 0.002 | encorafenib -0.051 | [8] -0.035 | alisertib 0.002 | [9] 0.009 | gefitinib 0.014

DYNLL2 (UniProt Q96FJ2)
inactive: vemurafenib 0.028 | [1] -0.075 | barasertib 0.122 | [2] 0.031 | volasertib 0.034 | [3] 0.015 | [4] -0.068 | [5] 0.004 | saracatinib -0.093 | sotrastaurin -0.103 | alvocidib 0.005 | Tubastatin A 0.118 | [6] 0.001 | defactinib -0.022 | [7] 0.054 | encorafenib -0.002 | [8] -0.127 | alisertib 0.02 | [9] 0.003 | gefitinib -0.106

EFHD2 (UniProt Q96C19)
inactive: vemurafenib -0.016 | [1] -0.013 | barasertib -0.021 | [2] 0.039 | volasertib 0.033 | [3] -0.025 | [4] -0.095 | [5] 0.065 | saracatinib -0.01 | sotrastaurin 0.007 | alvocidib 0.01 | Tubastatin A 0.052 | [6] 0.013 | defactinib -0.008 | [7] 0.045 | encorafenib 0.008 | [8] -0.033 | alisertib 0.002 | [9] -0.009 | gefitinib -0.016

EBP (UniProt Q15125)
inactive: vemurafenib 0.056 | [1] 0.024 | barasertib 0.069 | [2] 0.071 | volasertib 0.038 | [3] -0.024 | [4] -0.354 | [5] 0.044 | saracatinib 0.135 | sotrastaurin -0.103 | alvocidib -0.003 | Tubastatin A 0.004 | [6] 0.087 | defactinib 0.028 | encorafenib 0.005 | [8] -0.016 | alisertib -0.036 | [9] 0.048 | gefitinib 0.04
active: [7] 0.291

Two entries drawn at random from the list so far, as already listed:
EBP (UniProt Q15125)
inactive: vemurafenib 0.056 | [1] 0.024 | barasertib 0.069 | [2] 0.071 | volasertib 0.038 | [3] -0.024 | [4] -0.354 | [5] 0.044 | saracatinib 0.135 | sotrastaurin -0.103 | alvocidib -0.003 | Tubastatin A 0.004 | [6] 0.087 | defactinib 0.028 | encorafenib 0.005 | [8] -0.016 | alisertib -0.036 | [9] 0.048 | gefitinib 0.04
active: [7] 0.291

EFHD2 (UniProt Q96C19)
inactive: vemurafenib -0.016 | [1] -0.013 | barasertib -0.021 | [2] 0.039 | volasertib 0.033 | [3] -0.025 | [4] -0.095 | [5] 0.065 | saracatinib -0.01 | sotrastaurin 0.007 | alvocidib 0.01 | Tubastatin A 0.052 | [6] 0.013 | defactinib -0.008 | [7] 0.045 | encorafenib 0.008 | [8] -0.033 | alisertib 0.002 | [9] -0.009 | gefitinib -0.016

Next entries.

DPP8 (UniProt Q6V1X1)
inactive: vemurafenib -0.189 | [1] -0.064 | barasertib 0.07 | [2] -0.167 | volasertib 0.03 | [3] 0.048 | [4] -0.044 | [5] -0.006 | saracatinib -0.041 | sotrastaurin 0.091 | alvocidib -0.066 | Tubastatin A -0.044 | [6] -0.025 | defactinib 0.024 | [7] -0.022 | encorafenib 0.01 | [8] -0.03 | alisertib -0.015 | [9] 0.051 | gefitinib -0.058

DSTN (UniProt P60981)
inactive: vemurafenib -0.006 | [1] -0.002 | barasertib -0.005 | [2] -0.015 | volasertib -0.013 | [3] 0.015 | [4] 0.025 | [5] 0.035 | saracatinib -0.005 | sotrastaurin -0.011 | alvocidib -0.011 | Tubastatin A -0.089 | [6] 0.015 | defactinib 0.002 | [7] -0.072 | encorafenib -0.011 | [8] -0.071 | alisertib -0.013 | [9] -0.02 | gefitinib -0.043

EIF1B (UniProt O60739)
inactive: vemurafenib -0.006 | [1] 0.029 | barasertib 0.033 | [2] -0.045 | volasertib 0.074 | [3] 0.01 | [4] 0.01 | [5] 0.052 | saracatinib -0.082 | sotrastaurin -0.124 | alvocidib -0.275 | Tubastatin A 0.141 | [6] -0.088 | defactinib 0.011 | [7] 0.219 | encorafenib 0.071 | [8] -0.131 | alisertib -0.078 | [9] -0.039 | gefitinib -0.365

EHBP1L1 (UniProt Q8N3D4)
inactive: vemurafenib 0.01 | [1] 0.006 | barasertib 0.04 | [2] -0.037 | volasertib -0.019 | [3] 0.034 | [4] -0.042 | [5] 0.019 | saracatinib 0.027 | sotrastaurin -0.019 | alvocidib -0.027 | Tubastatin A -0.064 | [6] -0.005 | defactinib -0.013 | [7] 0.055 | encorafenib 0.025 | [8] -0.048 | alisertib 0.005 | [9] 0.082 | gefitinib 0.043

EAF1 (UniProt Q96JC9)
inactive: vemurafenib -0.157 | [1] 0.102 | barasertib -0.011 | [2] -0.05 | volasertib 0.022 | [3] -0.011 | [4] -0.055 | [5] 0.06 | saracatinib -0.018 | sotrastaurin -0.008 | alvocidib -0.015 | Tubastatin A 0.027 | [6] 0 | defactinib 0.026 | [7] 0.032 | encorafenib -0.018 | [8] 0.007 | alisertib 0.059 | [9] -0.01 | gefitinib 0.093

EFNB1 (UniProt P98172)
inactive: vemurafenib 0.105 | [1] 0.041 | barasertib 0.211 | [2] 0.044 | volasertib -0.013 | [3] -0.02 | [4] 0.043 | [5] 0.009 | saracatinib -0.013 | sotrastaurin 0.024 | alvocidib -0.023 | Tubastatin A 0.084 | [6] -0.032 | defactinib 0.013 | [7] 0.031 | encorafenib 0.004 | [8] 0.037 | alisertib 0.124 | [9] 0.017 | gefitinib 0.017

EHMT1 (UniProt Q9H9B1)
inactive: vemurafenib 0.045 | [1] -0.004 | barasertib 0.026 | [2] -0.037 | volasertib -0.056 | [3] -0.085 | [4] -0.118 | [5] 0.024 | saracatinib -0.011 | sotrastaurin -0.035 | alvocidib -0.063 | Tubastatin A -0.033 | [6] 0.032 | defactinib -0.001 | [7] 0.15 | encorafenib 0.033 | [8] 0.03 | alisertib -0.037 | [9] -0.013 | gefitinib 0.038

ECHDC1 (UniProt Q9NTX5)
inactive: vemurafenib 0.011 | [1] -0.001 | barasertib 0.004 | [2] -0.037 | volasertib 0.022 | [3] 0.054 | [4] -0.009 | [5] 0.055 | saracatinib 0.024 | sotrastaurin 0.009 | alvocidib -0.045 | Tubastatin A -0.03 | [6] -0.01 | defactinib -0.002 | [7] -0.012 | encorafenib 0.071 | [8] 0 | alisertib 0.022 | [9] -0.015 | gefitinib 0.063

DROSHA (UniProt Q9NRR4)
inactive: vemurafenib -0.065 | [1] 0.095 | barasertib 0.089 | [2] -0.066 | volasertib -0.057 | [3] 0.034 | [4] 0.06 | [5] -0.091 | saracatinib 0.022 | sotrastaurin 0.125 | alvocidib -0.041 | Tubastatin A -0.15 | [6] -0.029 | defactinib -0.046 | [7] 0.009 | encorafenib 0.057 | [8] 0.065 | alisertib 0.048 | [9] -0.079 | gefitinib 0.079

ECI1 (UniProt P42126)
inactive: vemurafenib -0.006 | [1] 0.012 | barasertib 0.021 | [2] -0.006 | volasertib 0.042 | [3] 0.017 | [4] -0.007 | [5] 0.058 | saracatinib 0.004 | sotrastaurin 0.001 | alvocidib 0.015 | Tubastatin A 0 | [6] -0.023 | defactinib 0.029 | [7] 0.021 | encorafenib 0 | [8] -0.041 | alisertib 0.013 | [9] 0.008 | gefitinib -0.003
